Experiment [1] addresses T1, mouse alpha (2) macroglobulin receptor (mouse, UniProt Q91ZX7 20-4545). Description: summary of the re-presentation inhibition experiments.
For experiment [2], the target named is T1, mouse alpha (2) macroglobulin receptor. Description: summary of the affinity column, cross-linking and cell staining experiments.
For experiment [3] the target is unchanged. Briefly: flow cytometry, FITC-labelled HSP on mouse peritoneal macrophages, bone marrow-derived dendritic cells and RAW264.7 cells.
The target is the same in experiment [4]. Briefly: confocal microscopy, FITC-labelled protein on CD11c+ cells.
Experiment [5] has the same target. Briefly: confocal microscopy of RAW264.7 cells with FITC-labelled gp96.

Sequences of proteins named here, by UniProt entry; tags and fusion partners are left off. A change or cut given only in a name is not applied to a line headed by its entry. Residues count along the entry.
UniProt Q91ZX7: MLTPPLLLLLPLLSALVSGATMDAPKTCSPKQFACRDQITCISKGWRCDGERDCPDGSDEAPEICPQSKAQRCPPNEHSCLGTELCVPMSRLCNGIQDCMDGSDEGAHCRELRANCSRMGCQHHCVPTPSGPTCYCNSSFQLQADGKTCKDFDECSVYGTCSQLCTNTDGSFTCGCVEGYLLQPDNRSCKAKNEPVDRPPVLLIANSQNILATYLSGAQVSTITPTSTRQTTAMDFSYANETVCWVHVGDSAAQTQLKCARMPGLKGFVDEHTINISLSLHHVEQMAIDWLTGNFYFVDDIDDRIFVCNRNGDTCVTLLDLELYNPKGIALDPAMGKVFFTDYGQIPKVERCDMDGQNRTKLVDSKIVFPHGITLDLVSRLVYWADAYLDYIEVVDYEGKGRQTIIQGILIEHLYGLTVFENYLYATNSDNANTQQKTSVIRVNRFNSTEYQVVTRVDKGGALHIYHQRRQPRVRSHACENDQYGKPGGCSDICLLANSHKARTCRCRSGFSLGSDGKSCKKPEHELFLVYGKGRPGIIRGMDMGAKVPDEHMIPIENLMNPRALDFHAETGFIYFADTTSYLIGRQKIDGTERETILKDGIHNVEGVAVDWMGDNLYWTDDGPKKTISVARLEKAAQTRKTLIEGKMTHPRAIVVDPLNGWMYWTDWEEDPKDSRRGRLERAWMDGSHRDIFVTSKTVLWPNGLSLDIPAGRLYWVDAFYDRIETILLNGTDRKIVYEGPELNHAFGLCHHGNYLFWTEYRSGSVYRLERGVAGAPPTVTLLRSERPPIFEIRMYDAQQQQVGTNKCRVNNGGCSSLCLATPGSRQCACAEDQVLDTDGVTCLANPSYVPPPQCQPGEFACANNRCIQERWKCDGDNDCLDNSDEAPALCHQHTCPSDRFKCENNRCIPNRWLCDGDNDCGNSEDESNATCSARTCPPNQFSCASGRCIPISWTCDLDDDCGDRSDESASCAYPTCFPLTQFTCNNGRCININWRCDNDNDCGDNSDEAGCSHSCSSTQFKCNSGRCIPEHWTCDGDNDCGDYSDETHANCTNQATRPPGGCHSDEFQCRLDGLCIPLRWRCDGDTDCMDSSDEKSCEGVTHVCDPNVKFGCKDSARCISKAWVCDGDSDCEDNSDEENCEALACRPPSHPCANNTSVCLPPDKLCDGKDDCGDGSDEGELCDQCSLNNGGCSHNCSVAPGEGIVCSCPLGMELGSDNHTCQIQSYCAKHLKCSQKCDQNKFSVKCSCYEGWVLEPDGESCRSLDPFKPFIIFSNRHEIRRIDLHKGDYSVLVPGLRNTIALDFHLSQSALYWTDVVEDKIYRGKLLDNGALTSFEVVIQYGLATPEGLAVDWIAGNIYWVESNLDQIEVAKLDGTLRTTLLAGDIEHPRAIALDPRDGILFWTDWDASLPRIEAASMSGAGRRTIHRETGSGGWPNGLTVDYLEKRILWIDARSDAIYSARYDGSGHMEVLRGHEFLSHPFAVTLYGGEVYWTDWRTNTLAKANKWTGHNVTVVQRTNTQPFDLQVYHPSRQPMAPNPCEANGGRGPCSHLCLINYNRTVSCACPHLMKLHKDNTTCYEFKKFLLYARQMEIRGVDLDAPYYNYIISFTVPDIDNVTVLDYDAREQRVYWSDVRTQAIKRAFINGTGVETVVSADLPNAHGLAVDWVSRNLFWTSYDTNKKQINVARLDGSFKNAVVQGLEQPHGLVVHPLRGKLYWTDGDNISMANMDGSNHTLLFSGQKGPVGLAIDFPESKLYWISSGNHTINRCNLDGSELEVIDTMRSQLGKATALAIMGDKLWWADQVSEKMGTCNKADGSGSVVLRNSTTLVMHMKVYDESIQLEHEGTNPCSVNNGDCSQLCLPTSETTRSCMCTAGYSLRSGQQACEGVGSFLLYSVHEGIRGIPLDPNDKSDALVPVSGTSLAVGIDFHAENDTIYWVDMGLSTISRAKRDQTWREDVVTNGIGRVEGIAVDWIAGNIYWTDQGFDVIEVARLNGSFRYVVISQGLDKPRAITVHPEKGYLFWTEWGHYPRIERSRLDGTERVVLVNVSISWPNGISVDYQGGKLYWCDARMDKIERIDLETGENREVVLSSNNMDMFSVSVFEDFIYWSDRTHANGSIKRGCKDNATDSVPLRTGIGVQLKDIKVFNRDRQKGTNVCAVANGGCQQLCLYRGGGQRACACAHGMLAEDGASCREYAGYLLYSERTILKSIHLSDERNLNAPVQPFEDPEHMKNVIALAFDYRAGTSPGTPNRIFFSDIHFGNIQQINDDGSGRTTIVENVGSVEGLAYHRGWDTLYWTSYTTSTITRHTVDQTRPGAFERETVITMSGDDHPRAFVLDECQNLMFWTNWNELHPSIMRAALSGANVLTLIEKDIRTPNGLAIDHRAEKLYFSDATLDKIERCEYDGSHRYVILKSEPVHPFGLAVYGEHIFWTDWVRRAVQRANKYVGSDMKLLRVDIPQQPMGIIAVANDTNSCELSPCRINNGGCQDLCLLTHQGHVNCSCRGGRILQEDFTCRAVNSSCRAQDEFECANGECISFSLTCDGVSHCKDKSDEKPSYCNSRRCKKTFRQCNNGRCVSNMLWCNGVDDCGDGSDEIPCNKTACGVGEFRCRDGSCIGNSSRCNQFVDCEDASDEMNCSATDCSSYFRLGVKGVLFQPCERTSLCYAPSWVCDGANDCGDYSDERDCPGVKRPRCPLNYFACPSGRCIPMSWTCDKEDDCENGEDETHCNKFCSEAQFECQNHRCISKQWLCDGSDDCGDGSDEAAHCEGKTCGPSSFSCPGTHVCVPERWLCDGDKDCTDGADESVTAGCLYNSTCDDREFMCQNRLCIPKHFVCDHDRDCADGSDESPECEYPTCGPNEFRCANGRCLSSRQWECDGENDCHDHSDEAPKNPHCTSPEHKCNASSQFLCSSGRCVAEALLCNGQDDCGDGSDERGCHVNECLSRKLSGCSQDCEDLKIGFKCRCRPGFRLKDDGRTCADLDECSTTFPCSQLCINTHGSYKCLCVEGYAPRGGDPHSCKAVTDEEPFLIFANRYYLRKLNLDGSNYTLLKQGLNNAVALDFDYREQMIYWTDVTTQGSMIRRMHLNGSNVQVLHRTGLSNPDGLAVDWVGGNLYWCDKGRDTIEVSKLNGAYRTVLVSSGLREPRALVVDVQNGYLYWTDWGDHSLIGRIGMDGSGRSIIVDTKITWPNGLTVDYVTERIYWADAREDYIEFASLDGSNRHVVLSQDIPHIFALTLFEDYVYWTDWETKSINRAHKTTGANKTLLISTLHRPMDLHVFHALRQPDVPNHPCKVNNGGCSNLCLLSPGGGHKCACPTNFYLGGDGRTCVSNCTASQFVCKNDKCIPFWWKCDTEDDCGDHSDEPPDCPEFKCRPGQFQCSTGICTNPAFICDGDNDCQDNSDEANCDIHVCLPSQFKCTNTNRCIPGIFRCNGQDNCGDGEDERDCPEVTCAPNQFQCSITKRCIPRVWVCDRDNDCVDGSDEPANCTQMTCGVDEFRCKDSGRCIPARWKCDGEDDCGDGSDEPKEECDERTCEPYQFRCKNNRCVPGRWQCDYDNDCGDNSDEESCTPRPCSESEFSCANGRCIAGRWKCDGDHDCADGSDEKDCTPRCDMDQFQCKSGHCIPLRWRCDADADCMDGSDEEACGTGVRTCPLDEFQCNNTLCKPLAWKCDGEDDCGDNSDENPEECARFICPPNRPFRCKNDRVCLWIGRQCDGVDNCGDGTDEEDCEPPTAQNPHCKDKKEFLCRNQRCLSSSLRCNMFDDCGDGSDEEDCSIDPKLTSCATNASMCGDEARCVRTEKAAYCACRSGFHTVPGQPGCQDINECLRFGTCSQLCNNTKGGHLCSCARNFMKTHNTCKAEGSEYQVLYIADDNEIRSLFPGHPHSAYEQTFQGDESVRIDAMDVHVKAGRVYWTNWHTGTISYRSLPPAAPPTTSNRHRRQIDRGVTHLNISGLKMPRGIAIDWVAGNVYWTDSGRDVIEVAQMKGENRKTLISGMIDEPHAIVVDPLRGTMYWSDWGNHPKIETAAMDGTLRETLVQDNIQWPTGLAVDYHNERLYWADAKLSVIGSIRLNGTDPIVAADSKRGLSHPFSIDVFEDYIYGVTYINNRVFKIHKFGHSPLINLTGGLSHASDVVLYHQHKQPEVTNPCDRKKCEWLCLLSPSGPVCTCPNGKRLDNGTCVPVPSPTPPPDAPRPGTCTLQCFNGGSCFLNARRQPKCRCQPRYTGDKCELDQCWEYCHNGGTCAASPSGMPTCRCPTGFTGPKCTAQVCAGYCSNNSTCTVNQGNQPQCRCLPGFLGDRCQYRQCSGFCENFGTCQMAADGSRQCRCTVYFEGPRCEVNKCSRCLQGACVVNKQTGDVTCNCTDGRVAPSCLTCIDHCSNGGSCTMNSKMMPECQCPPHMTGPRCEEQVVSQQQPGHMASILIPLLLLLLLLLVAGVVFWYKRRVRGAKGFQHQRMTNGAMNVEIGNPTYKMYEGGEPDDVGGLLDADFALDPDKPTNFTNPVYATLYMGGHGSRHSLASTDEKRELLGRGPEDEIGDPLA
UniProt P14211, residues 18-416: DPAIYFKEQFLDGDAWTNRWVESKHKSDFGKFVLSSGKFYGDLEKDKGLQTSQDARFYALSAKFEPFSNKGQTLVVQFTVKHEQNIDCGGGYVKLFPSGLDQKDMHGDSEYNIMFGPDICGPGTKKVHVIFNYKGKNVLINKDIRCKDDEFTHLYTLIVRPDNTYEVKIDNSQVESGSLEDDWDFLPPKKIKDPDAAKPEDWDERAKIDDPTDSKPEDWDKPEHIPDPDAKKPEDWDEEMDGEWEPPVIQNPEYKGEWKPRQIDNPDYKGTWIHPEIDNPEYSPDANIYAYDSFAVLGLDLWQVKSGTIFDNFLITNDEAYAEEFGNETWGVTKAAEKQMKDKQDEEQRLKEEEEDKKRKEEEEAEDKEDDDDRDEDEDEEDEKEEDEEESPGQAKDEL

Results are given in words; binding and its absence hold for the method and conditions named. Some entries that bind do so weakly or less than the wild type.

Take “calreticulin (from UniProt P14211 18-416) (ligand)”: the binding result in experiment [1] is recorded as “binds”.

B1: heat shock protein gp96 (ligand, UniProt P08113 22-802, looked up)
chain: DDEVDVDGTVEEDLGKSREGSRTDDEVVQREEEAIQLDGLNASQIRELREKSEKFAFQAEVNRMMKLIINSLYKNKEIFLRELISNASDALDKIRLISLTDENALAGNEELTVKIKCDKEKNLLHVTDTGVGMTREELVKNLGTIAKSGTSEFLNKMTEAQEDGQSTSELIGQFGVGFYSAFLVADKVIVTSKHNNDTQHIWESDSNEFSVIADPRGNTLGRGTTITLVLKEEASDYLELDTIKNLVRKYSQFINFPIYVWSSKTETVEEPLEEDEAAKEEKEESDDEAAVEEEEEEKKPKTKKVEKTVWDWELMNDIKPIWQRPSKEVEEDEYKAFYKSFSKESDDPMAYIHFTAEGEVTFKSILFVPTSAPRGLFDEYGSKKSDYIKLYVRRVFITDDFHDMMPKYLNFVKGVVDSDDLPLNVSRETLQQHKLLKVIRKKLVRKTLDMIKKIADEKYNDTFWKEFGTNIKLGVIEDHSNRTRLAKLLRFQSSHHSTDITSLDQYVERMKEKQDKIYFMAGSSRKEAESSPFVERLLKKGYEVIYLTEPVDEYCIQALPEFDGKRFQNVAKEGVKFDESEKTKESREATEKEFEPLLNWMKDKALKDKIEKAVVSQRLTESPCALVASQYGWSGNMERIMKAQAYQTGKDISTNYYASQKKTFEINPRHPLIRDMLRRIKEDEDDKTVMDLAVVLFETATLRSGYLLPDTKAYGDRIERMLRLSLNIDPEAQVEEEPEEEPEDTSEDAEDSEQDEGEEMDAGTEEEEEETEKESTEKDEL
Consider B1, for which the binding entry in experiment [2], in experiment [3], in experiment [4] and in experiment [5] was “binds” throughout.

Values taken from US20040072993A1 (UNIVERSITY OF CONNECTICUT HEALTH CENTER, published 2004).
